Test results taken from the supplement of paper PMC8728848.
This is one part of the list.

Assays:
Assay in all cases: glycan array binding signal (z-score within array); higher = stronger binding
Details in all cases: glycan notation: IUPAC condensed, linker removed
[1] = molecular target: Fuc(a1-2)Gal(b1-4)GlcNAc(b1-3)Gal(b1-4)GlcNAc(b1-2)Man(a1-3)[Fuc(a1-2)Gal(b1-4)GlcNAc(b1-3)Gal(b1-4)GlcNAc(b1-2)Man(a1-6)]Man(b1-4)GlcNAc(b1-4)GlcNAc
Outline: (§1)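 The Consortium for Functional Glycomics database supplied 3228 glycan arrays, of which those lacking an available protein sequence were dropped. The binding signal, a within-array Z-score, was averaged across arrays of the same protein sequence and across linkers. Negative scores can be read as non-binding.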

[2] = molecular target: Fuc(a1-2)Gal(b1-4)GlcNAc(b1-3)Gal(b1-4)GlcNAc(b1-3)Gal(b1-4)GlcNAc
Outline: as §1

[3] = molecular target: Fuc(a1-2)Gal(b1-4)GlcNAc(b1-3)GalNAc
Outline: as §1

[4] = molecular target: Fuc(a1-2)Gal(b1-4)GlcNAc(b1-3)[Fuc(a1-2)Gal(b1-4)GlcNAc(b1-6)]GalNAc
Outline: as §1

[5] = molecular target: Fuc(a1-2)Gal(b1-4)GlcNAc(b1-3)[Fuc(a1-3)[Gal(b1-4)]GlcNAc(b1-6)]Gal(b1-4)Glc
Outline: as §1

[6] = molecular target: Fuc(a1-2)Gal(b1-4)GlcNAc(b1-6)GalNAc
Outline: as §1

[7] = molecular target: Fuc(a1-2)Gal(b1-4)GlcNAc6S
Outline: as §1

[8] = molecular target: Fuc(a1-2)Gal(b1-4)[Fuc(a1-3)]GlcNAc
Outline: as §1

[9] = molecular target: Fuc(a1-2)Gal(b1-4)[Fuc(a1-3)]GlcNAc(b1-2)Man(a1-3)[Fuc(a1-2)Gal(b1-4)[Fuc(a1-3)]GlcNAc(b1-2)Man(a1-6)]Man(b1-4)GlcNAc(b1-4)[Fuc(a1-6)]GlcNAc
Outline: as §1

[10] = molecular target: Fuc(a1-2)Gal(b1-4)[Fuc(a1-3)]GlcNAc(b1-2)[Fuc(a1-2)Gal(b1-4)[Fuc(a1-3)]GlcNAc(b1-4)]Man(a1-3)[Fuc(a1-2)Gal(b1-4)[Fuc(a1-3)]GlcNAc(b1-2)Man(a1-6)]Man(b1-4)GlcNAc(b1-4)GlcNAc
Outline: as §1

[11] = molecular target: Fuc(a1-2)Gal(b1-4)[Fuc(a1-3)]GlcNAc(b1-3)Gal(b1-4)[Fuc(a1-3)]GlcNAc
Outline: as §1

[12] = molecular target: Fuc(a1-2)Gal(b1-4)[Fuc(a1-3)]GlcNAc(b1-3)Gal(b1-4)[Fuc(a1-3)]GlcNAc(b1-3)Gal(b1-4)[Fuc(a1-3)]GlcNAc
Outline: as §1

[13] = molecular target: Fuc(a1-2)Gal(b1-4)[Fuc(a1-3)]GlcNAc(b1-3)GalNAc
Outline: as §1

[14] = molecular target: Fuc(a1-2)Gal(b1-4)[Fuc(a1-3)]GlcNAc(b1-3)[Neu5Ac(a2-6)Gal(b1-4)GlcNAc(b1-6)]Gal(b1-4)Glc
Outline: as §1

[15] = molecular target: Fuc(a1-2)Gal3S(b1-4)GlcNAc
Outline: as §1

[16] = molecular target: Fuc(a1-2)Gal6S(b1-3)GlcNAc
Outline: as §1

[17] = molecular target: Fuc(a1-2)Gal6S(b1-3)GlcNAc6S
Outline: as §1

Fuc(a1-2)Gal6S(b1-4)Glc = molecular target: Fuc(a1-2)Gal6S(b1-4)Glc
Outline: as §1

[18] = molecular target: Fuc(a1-2)Gal6S(b1-4)Glc6S
Outline: as §1

Fuc(a1-2)[Gal(a1-3)]Gal = molecular target: Fuc(a1-2)[Gal(a1-3)]Gal
Outline: as §1

[19] = molecular target: Fuc(a1-2)[Gal(a1-3)]Gal(b1-3)GalNAc
Outline: as §1

[20] = molecular target: Fuc(a1-2)[Gal(a1-3)]Gal(b1-3)GalNAc(b1-3)Gal(a1-4)Gal(b1-4)Glc
Outline: as §1

[21] = molecular target: Fuc(a1-2)[Gal(a1-3)]Gal(b1-3)GlcNAc
Outline: as §1

[22] = molecular target: Fuc(a1-2)[Gal(a1-3)]Gal(b1-3)GlcNAc(b1-2)Man(a1-3)[Fuc(a1-2)[Gal(a1-3)]Gal(b1-3)GlcNAc(b1-2)Man(a1-6)]Man(b1-4)GlcNAc(b1-4)GlcNAc
Outline: as §1

[23] = molecular target: Fuc(a1-2)[Gal(a1-3)]Gal(b1-3)GlcNAc(b1-2)Man(a1-3)[Fuc(a1-2)[Gal(a1-3)]Gal(b1-3)GlcNAc(b1-2)Man(a1-6)]Man(b1-4)GlcNAc(b1-4)[Fuc(a1-6)]GlcNAc
Outline: as §1

[24] = molecular target: Fuc(a1-2)[Gal(a1-3)]Gal(b1-3)GlcNAc(b1-3)GalNAc
Outline: as §1

[25] = molecular target: Fuc(a1-2)[Gal(a1-3)]Gal(b1-3)GlcNAc(b1-6)GalNAc
Outline: as §1

[26] = molecular target: Fuc(a1-2)[Gal(a1-3)]Gal(b1-4)Glc
Outline: as §1

[27] = molecular target: Fuc(a1-2)[Gal(a1-3)]Gal(b1-4)GlcNAc
Outline: as §1

[28] = molecular target: Fuc(a1-2)[Gal(a1-3)]Gal(b1-4)GlcNAc(b1-2)Man
Outline: as §1

[29] = molecular target: Fuc(a1-2)[Gal(a1-3)]Gal(b1-4)GlcNAc(b1-2)Man(a1-3)[Fuc(a1-2)[Gal(a1-3)]Gal(b1-4)GlcNAc(b1-2)Man(a1-6)]Man(b1-4)GlcNAc(b1-4)GlcNAc
Outline: as §1

[30] = molecular target: Fuc(a1-2)[Gal(a1-3)]Gal(b1-4)GlcNAc(b1-2)Man(a1-3)[Fuc(a1-2)[Gal(a1-3)]Gal(b1-4)GlcNAc(b1-2)Man(a1-6)]Man(b1-4)GlcNAc(b1-4)[Fuc(a1-6)]GlcNAc
Outline: as §1

[31] = molecular target: Fuc(a1-2)[Gal(a1-3)]Gal(b1-4)GlcNAc(b1-3)GalNAc
Outline: as §1

[32] = molecular target: Fuc(a1-2)[Gal(a1-3)]Gal(b1-4)GlcNAc(b1-3)[Fuc(a1-2)[Gal(a1-3)]Gal(b1-4)GlcNAc(b1-6)]GalNAc
Outline: as §1

[33] = molecular target: Fuc(a1-2)[Gal(a1-3)]Gal(b1-4)GlcNAc(b1-6)GalNAc
Outline: as §1

[34] = molecular target: Fuc(a1-2)[Gal(a1-3)]Gal(b1-4)[Fuc(a1-3)]Glc
Outline: as §1

[35] = molecular target: Fuc(a1-2)[Gal(a1-3)]Gal(b1-4)[Fuc(a1-3)]GlcNAc
Outline: as §1

[36] = molecular target: Fuc(a1-2)[Gal(a1-3)]Gal(b1-4)[Fuc(a1-3)]GlcNAc(b1-3)GalNAc
Outline: as §1

[37] = molecular target: Fuc(a1-2)[Gal(a1-4)]Gal(b1-4)GlcNAc
Outline: as §1

[38] = molecular target: Fuc(a1-2)[GalNAc(a1-3)]Gal
Outline: as §1

[39] = molecular target: Fuc(a1-2)[GalNAc(a1-3)]Gal(b1-3)GalNAc(a1-3)[Fuc(a1-2)]Gal(b1-4)GlcNAc
Outline: as §1

[40] = molecular target: Fuc(a1-2)[GalNAc(a1-3)]Gal(b1-3)GalNAc(b1-3)Gal(a1-4)Gal(b1-4)Glc
Outline: as §1

[41] = molecular target: Fuc(a1-2)[GalNAc(a1-3)]Gal(b1-3)GlcNAc
Outline: as §1

[42] = molecular target: Fuc(a1-2)[GalNAc(a1-3)]Gal(b1-3)GlcNAc(b1-2)Man(a1-3)[Fuc(a1-2)[GalNAc(a1-3)]Gal(b1-3)GlcNAc(b1-2)Man(a1-6)]Man(b1-4)GlcNAc(b1-4)GlcNAc
Outline: as §1

[43] = molecular target: Fuc(a1-2)[GalNAc(a1-3)]Gal(b1-3)GlcNAc(b1-2)Man(a1-3)[Fuc(a1-2)[GalNAc(a1-3)]Gal(b1-3)GlcNAc(b1-2)Man(a1-6)]Man(b1-4)GlcNAc(b1-4)[Fuc(a1-6)]GlcNAc
Outline: as §1

B1: Ovorubin (Pomacea canaliculata), J7I2T6 (protein)
chain: MFVATSLLLAIATLVVRASPHNYLIMDIEPPKSVSERDILNLLSPLQVKHSFRVTGSTRLLIVIRLDAQSYEKLDEITVPGKVEVIPAVNMADTMERCGVSWPRVELTDDNVTLFESESTLTDVTKEQLKAMLIGYGEHMSGLLQAHRFEYYQAAGATPHRHFVFVNSVPDEIEVFGREGVDIWGGPGEFVVKPQYVTRI
- glycan array binding signal (z-score) [1]: 0.865
- glycan array binding signal (z-score) [2]: -0.028
- glycan array binding signal (z-score) [3]: -0.197
- glycan array binding signal (z-score) [4]: 0.194
- glycan array binding signal (z-score) [5]: -0.468
- glycan array binding signal (z-score) [6]: 0.848
- glycan array binding signal (z-score) [7]: 0.049
- glycan array binding signal (z-score) [8]: -0.814
- glycan array binding signal (z-score) [9]: 0.428
- glycan array binding signal (z-score) [10]: 0.485
- glycan array binding signal (z-score) [11]: -0.813
- glycan array binding signal (z-score) [12]: 1.19
- glycan array binding signal (z-score) [13]: 0.701
- glycan array binding signal (z-score) [14]: -0.213
- glycan array binding signal (z-score) [15]: -0.963
- glycan array binding signal (z-score) [16]: 0.343
- glycan array binding signal (z-score) [17]: 0.265
- glycan array binding signal (z-score) (Fuc(a1-2)Gal6S(b1-4)Glc): -0.235
- glycan array binding signal (z-score) [18]: 0.236
- glycan array binding signal (z-score) (Fuc(a1-2)[Gal(a1-3)]Gal): -0.016
- glycan array binding signal (z-score) [19]: -0.033
- glycan array binding signal (z-score) [20]: -0.178
- glycan array binding signal (z-score) [21]: -0.405
- glycan array binding signal (z-score) [22]: -0.045
- glycan array binding signal (z-score) [23]: -0.182
- glycan array binding signal (z-score) [24]: 0.287
- glycan array binding signal (z-score) [25]: 0.121
- glycan array binding signal (z-score) [26]: 0.11
- glycan array binding signal (z-score) [27]: -0.498
- glycan array binding signal (z-score) [28]: 0.602
- glycan array binding signal (z-score) [29]: -0.156
- glycan array binding signal (z-score) [30]: 0.141
- glycan array binding signal (z-score) [31]: 1.88
- glycan array binding signal (z-score) [32]: 1.27
- glycan array binding signal (z-score) [33]: 0.091
- glycan array binding signal (z-score) [34]: -0.479
- glycan array binding signal (z-score) [35]: -0.405
- glycan array binding signal (z-score) [36]: -0.704
- glycan array binding signal (z-score) [37]: -0.639
- glycan array binding signal (z-score) [38]: -0.52
- glycan array binding signal (z-score) [39]: -0.862
- glycan array binding signal (z-score) [40]: -0.914
- glycan array binding signal (z-score) [41]: 0.15
- glycan array binding signal (z-score) [42]: -0.695
- glycan array binding signal (z-score) [43]: -0.668
